Laboratory results as given in patent US20180021429A1, “ANTICANCER AGENTS OR ANTIMETASTATIC AGENTS USING FSTL1 AND COMBINATION DRUG THEREOF” (PHARMA FOODS INTERNATIONAL CO., LTD., priority 2015, published 2018).
These are yes or no findings as the source states them, for the method shown. Some entries that bind do so weakly or less than the wild type.

Sequences of proteins named here, by UniProt entry; tags and fusion partners are left off. A change or cut given only in a name is not applied to a line headed by its entry.
UniProt Q12841: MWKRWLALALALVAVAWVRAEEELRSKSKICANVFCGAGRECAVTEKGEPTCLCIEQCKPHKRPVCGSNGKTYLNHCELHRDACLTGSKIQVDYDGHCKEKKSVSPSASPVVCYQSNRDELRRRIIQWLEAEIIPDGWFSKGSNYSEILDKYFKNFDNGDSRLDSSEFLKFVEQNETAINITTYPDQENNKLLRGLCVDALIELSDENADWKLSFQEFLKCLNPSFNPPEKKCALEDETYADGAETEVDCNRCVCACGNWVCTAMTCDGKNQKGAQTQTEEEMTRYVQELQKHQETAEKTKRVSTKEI

B1: anti-FSTL1 antibody clone #6-55 (chicken-mouse chimeric antibody) (antibody, mouse IgG1, kappa, V domains shown)
VH: AVTLDESGGGLQTPGGALSLVCKGSGFTFTSVTMQWVRQAPGKGLEWVASVCSGSSTYYAPAVKGRATISRDNGQSTVRLQLSNLRPEDTGTYYCAKIAGRARWSCTSAAYNIDAWGHGTEVIVSS
VL: ASTQPSSVSAIPGETVKITCSGGGNNYGWYQQRSPGSAPVTVIYYNDNRPSNIPSRFSGSTSGSTSTLTITGVQADDEAIYYCGSWDSNTDSGIFGAGTTLTVLG
B2: anti-FSTL1 antibody clone #7-34 (chicken-mouse chimeric antibody) (antibody, mouse IgG1, kappa, V domains shown)
VH: AVTLDESGGGLQTPGGGLSLVCKASGFTFSSVTMQWVRQAPGKGLEWVASICSGSSTYYGPAVKGRATISRDNGQNTVRLQLNNLRAEDTATYYCAKIVGRGRWSCTSAAYNIDAWGHGTEVIVSS
VL: ASTQPSSVSANPGETVKITCSGGGNNYGWYQQKSPGSAPVTVIYYNNNRPSNIPSRFSGSTSGSTSTLTITGVQAEDEAVYYCGSYEGSTDSGIFGAGTTLTVLG
B3: anti-FSTL1 antibody clone #13 (chicken-mouse chimeric antibody) (antibody, mouse IgG1, kappa, V domains shown)
VH: AVTLDESGGGLQTPGGGLSLVCKASGFTFSSVTMQWVRQAPGKGLEWVASICSGSSTYYGPAVKGRATISRDNGQNTVRLQLNNLRAEDTATYYCAKIVGRGRWSCTSAAYNIDAWGHGTEVIVSS
VL: ASTQPSSVSANPGETVKITCSGGGNNYGWYQQKSPGSAPVTVIYNNNNRPSNIPSRFSGSKSGSTNTLTITGVQAEDEAVYYCGSYDSSSDSGIFGAGTTLTVLG
B4: anti-FSTL1 antibody clone #10 (chicken-mouse chimeric antibody) (antibody, mouse IgG1, kappa, V domains shown)
VH: AVTLDESGGGLQTPGGALSLVCKASGFFFFRIYDMGWVRQAPGKGLEWVAGIDDYGRYTGYGSAVKGRATISRDNGQSTVRLQLNNLRAEDTGTYYCARGAGTGCNSAGCGAYAGSIDAWGHGTEVIVSS
VL: ASTQPSSVSANPGETVKLTCSGGGSRYGWYQQKSPGSAPVTVIYYNDKRPSDIPSRFSGSKSGSTATLTITGVQAEDEAVYFCGGYDGSRDAGIFGAGTTLTVLG
B5: anti-FSTL1 antibody clone #33 (chicken-mouse chimeric antibody) (antibody, mouse IgG1, kappa, V domains shown)
VH: AVTLDESGGGLQTPGGGLSLVCKASGFTFSSFNMNWVRQAPGKGLEYVAEISGTGSSTYYGSAVKGRATISRDNGQSTVRLQLNNLRAEDTATYFCARGDGAYSIDAWGHGTEVIVSS
VL: ASTQPSSVSANPGETVEITCSGDSSYYGWFQQKSPGSAPVTVIYDNTNRPSDIPSRFSGSKSGSTATLTITGVRAEDEAVYYCGGYDSSTYDGIFGAGTTLTVLG

target: human FSTL1 (construct not stated) (human) (UniProt Q12841); experiment: SPR (Biacore T-200), captured antibody

binding, binds:
B1
B2
B3
B4
B5
